Holding throughout (assay): EMSA
On the technique in general: In EMSA bound probe runs differently from free probe, usually more slowly.

Chains of the proteins cited; added tags and fusions are not shown. A change or cut given only in a name is not applied to a line headed by its entry. Chains listed by the source or under a name are the forms on record and can include a tag or linker.
UniProt P52926: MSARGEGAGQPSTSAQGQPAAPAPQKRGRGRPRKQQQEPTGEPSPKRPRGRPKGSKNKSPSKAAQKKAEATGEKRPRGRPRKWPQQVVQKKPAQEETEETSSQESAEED
XLHMGA2betaa (Xenopus laevis), one chain, as listed by the source: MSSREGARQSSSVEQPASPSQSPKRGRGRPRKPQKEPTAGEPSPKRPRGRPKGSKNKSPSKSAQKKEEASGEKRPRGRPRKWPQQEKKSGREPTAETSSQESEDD

One series addresses hHMGA2 (human) (UniProt P52926). Particulars: EMSA as previously described (ref 30); recombinant protein.
Series [1] has as its system XLHMGA2betaa (HA-XLA2betaa) (Xenopus laevis). Particulars: 0.1 pmol probe, 2, 4, 6 uL IVT protein; EMSA as previously described (ref 30); protein translated in vitro; protein details: HA.
For series [2], the system named is XHMG-AT-hook1 (HA-XATH1) (Xenopus laevis). Particulars: 0.1 pmol probe, 2, 4, 6 uL IVT protein; EMSA as previously described (ref 30); protein translated in vitro; protein details: HA.
Series [3] concerns XLHMGA2betaa (Xenopus laevis). Conditions: EMSA as previously described (ref 30); recombinant protein.
The target in another series is T1, human HMGA1a (human) (UniProt P17096).
T1 sequence (looked up, limits assumed): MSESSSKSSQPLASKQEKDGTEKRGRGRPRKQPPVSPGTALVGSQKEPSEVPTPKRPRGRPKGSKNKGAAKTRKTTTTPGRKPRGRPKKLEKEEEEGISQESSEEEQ
Particulars: EMSA as previously described (ref 30); recombinant protein.

The exact form of at least one protein or probe is not confirmed. For some of these results: No signal at the amounts used counts as a negative. For some of these results: At least one verdict rests on a figure or table, not on a statement of the authors. For some of these results: Where a protein sequence is shown, tags need not be part of it.

Take “AGAAAAACTCCATCTAAAAAAAAAAAAAAAAAAAAAAAAAAACA (double strand) [E3]”: the binding result with hHMGA2 (human) was “binds”; in series [1], “binds”; in series [2], “no binding”; in series [3], “binds”; with human HMGA1a (human), “binds”.
Consider “GAAAGTGGAAATTCCTCTGAATAGAGAG (double strand) [NRDI]”, for which the binding result (in the series with hHMGA2 (human); in series [3]; with human HMGA1a (human)) was “binds” throughout.
“GACACATTAATCTATAATCAAATAC (double strand) [HCRII]”: the binding result is “binds” in the series with hHMGA2 (human); “binds” in series [1]; “no binding” in series [2]; “binds” in series [3]; “binds” with human HMGA1a (human).

(Values after PMC3723657.)
